The structures appear in SMILES notation.

The nature of this series: Volatility of perfuming compounds (Tables 4 to 10), with top/middle/bottom note type. The note with it: for Type: note type by volatility. The format is physicochemical. As to the method: In some aspects, the first perfume accord comprises perfuming compounds having a volatility ranging from 70,000 to 100 μg/l in air. In some aspects, perfuming compounds having a volatility ranging from 70,000 to 100 μg/l in air are referred to as “top notes”.
In some aspects, the second perfume accord comprises perfuming compounds having a volatility ranging from 99 to 50 μg/l in air. In some aspects, perfuming compounds having a volatility ranging from 99 to 50 μg/l in air are referred to as “middle notes”.
In some aspects, the third perfume accord comprises perfuming compounds having a volatility ranging from 49 to 0.1 μg/l in air. In some aspects, perfuming compounds having a volatility ranging from 49 to 0.1 μg/l in air are referred to as “bottom notes”.
Tables 4 to 10 describe top, middle and bottom note perfuming compounds for watery, green, fruity, citrus, sweet, gourmand and woody notes respectively.

Where [1] appears, read: Table 6, perfuming compounds having a fruity note.

As for `CC(C)CC(=O)O` [3-METHYLBUTANOIC ACID], the Volatility turned out to be 1530.76 μg/l air under setting [1] and 1530.76 μg/l air (Table 10, woody note). Also, the Type entry is, setting by setting: under setting [1], “TOP (perfuming compounds having a volatility ranging from 70,000 to 100 μg/l in air are referred to as “top notes”)”; (Table 10, perfuming compounds having a woody note) “Top”.

These data come from patent US20240301319A1, “PERFUMING COMPOSITIONS” (FIRMNICH SA, priority 2017, published 2024).
